The list shows a part of the results. Single values are uncertain, as repeats are few or missing.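 Imaging used 1,536-well plates; nuclei positive for cleaved PARP by antibody were divided by total DNA-stained nuclei to yield the apoptosis fraction. Doses for screening kept most cells viable, and cell lines differ markedly in resting and induced cleaved-PARP levels.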
test system: MeWo; experiment: cleaved PARP positive nuclei fraction relative to DMSO control; melanoma cells; higher = more apoptosis; details: library dose: low library concentration; 72 h

| SMILES | cleaved PARP positive nuclei fraction [%] |
| --- | --- |
| C=CCNC1=C2C[C@@H](C)C[C@H](OC)[C@H](O)[C@@H](C)/C=C(\C)[C@H](OC(N)=O)[C@@H](OC)/C=C\C=C(/C)C(=O)NC(=CC1=O)C2=O [Tanespimycin] + OCc1c[nH]c2ccccc12 [Indole-3-carbinol] (first compound 0.002 µM, partner dose 0.8 µM) | 77.7 |
| C=CCNC1=C2C[C@@H](C)C[C@H](OC)[C@H](O)[C@@H](C)/C=C(\C)[C@H](OC(N)=O)[C@@H](OC)/C=C\C=C(/C)C(=O)NC(=CC1=O)C2=O [Tanespimycin] + CC(=O)c1c(C)c2cnc(Nc3ccc(N4CCNCC4)cn3)nc2n(C2CCCC2)c1=O [palbociclib] (first compound 0.002 µM, partner dose 0.04 µM) | 63.7 |
| C#Cc1cccc(Nc2ncnc3cc(OCCOC)c(OCCOC)cc23)c1 [erlotinib] + Cn1c(Nc2ccc(C(F)(F)F)cc2)nc2cc(Oc3ccnc(-c4ncc(C(F)(F)F)[nH]4)c3)ccc21 [CHIR265] (first compound 0.8 µM, partner dose 0.08 µM) | 83.1 |
| C#Cc1cccc(Nc2ncnc3cc(OCCOC)c(OCCOC)cc23)c1 [erlotinib] + Cn1nnc2c(C(N)=O)ncn2c1=O [temozolomide] (first compound 0.8 µM, partner dose 2 µM) | 159 |
| Cn1c(Nc2ccc(C(F)(F)F)cc2)nc2cc(Oc3ccnc(-c4ncc(C(F)(F)F)[nH]4)c3)ccc21 + COCC[n+]1c2c(n(Cc3cnccn3)c1C)C(=O)c1ccccc1C2=O [YM155] (first compound 0.08 µM, partner dose 0.0004 µM) | 134 |
| Clc1ccc(Nc2nnc(Cc3ccncc3)c3ccccc23)cc1 [vatalanib] + C#Cc1cccc(Nc2ncnc3cc(OCCOC)c(OCCOC)cc23)c1 [erlotinib] (first compound 2 µM, partner dose 0.8 µM) | 25.9 |
| C=CCNC1=C2C[C@@H](C)C[C@H](OC)[C@H](O)[C@@H](C)/C=C(\C)[C@H](OC(N)=O)[C@@H](OC)/C=C\C=C(/C)C(=O)NC(=CC1=O)C2=O [Tanespimycin] + CC(C)CCN1c2nc(Nc3cc(F)c(O)c(F)c3)ncc2N(C)C(=O)C1C [BID1870] (first compound 0.002 µM, partner dose 0.2 µM) | 55.4 |

Two consecutive entries from above:

| SMILES | cleaved PARP positive nuclei fraction [%] |
| --- | --- |
| Cn1c(Nc2ccc(C(F)(F)F)cc2)nc2cc(Oc3ccnc(-c4ncc(C(F)(F)F)[nH]4)c3)ccc21 + COCC[n+]1c2c(n(Cc3cnccn3)c1C)C(=O)c1ccccc1C2=O [YM155] (first compound 0.08 µM, partner dose 0.0004 µM) | 134 |
| Clc1ccc(Nc2nnc(Cc3ccncc3)c3ccccc23)cc1 [vatalanib] + C#Cc1cccc(Nc2ncnc3cc(OCCOC)c(OCCOC)cc23)c1 [erlotinib] (first compound 2 µM, partner dose 0.8 µM) | 25.9 |

— the supplement of paper PMC4604168 (melanoma cell lines)
